# PubChem BioAssay AID1347075 (National Center for Advancing Translational Sciences (NCATS), 2019)
# Screen size: about 400,000 compounds; about 5,500 (1.4%) were called active. This list was built around the results that the source calls inconclusive (neither active nor inactive); the mix of calls is not that of the screen. Calls come from the whole dose curve; as a rule, active = well fitted cell-killing curve with a large enough effect; inconclusive = small, poorly fitted or top-dose-only effect, or effect the other way; inactive = flat fitted curve, though single readings scatter. A potency beside an inconclusive call is a rough fit, not a confirmed value.
# Test: qHTS assay for MDR1-selective chemotherapeutics: Primary screen using the parental adenocarcinoma cell KB-3-1; note: nearly all actives have a fitted effect of over 60% in size
# Settings: KB-3-1 viability, CellTiter-Glo ATP luminescence, 72 h; series mostly up to 46.1 µM
# Procedure, shortened: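 Cytotoxicity measured as CellTiter-Glo luminescence after 72 h at 37 C. Compound titrations were pinned onto drug-naive KB-3-1 parental adenocarcinoma cells grown in DMEM with 10% FBS, and normalized data fitted to concentration-response curves.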
# Potency is the fitted concentration of half-maximal effect.
row,SMILES,Potency
1,O=C(CNc1cccc2ccccc12)N/N=C/C(Br)=C/c1ccccc1,"inconclusive: 20.6 µM [cytotoxic, partial curve, poor fit]"
2,COc1ccccc1CCNC(=O)Cn1ccc2cc(S(=O)(=O)N3CCCCC3)ccc21,inactive
3,CC(C)(C)CC(C)(C)c1ccc(O)c(Cc2ccc(Cl)cc2Cl)c1,"inconclusive: 29.1 µM [cytotoxic, single point]"
4,S=c1sc2c(Cl)ncnc2n1-c1ccccc1,"inconclusive: 29.1 µM [cytotoxic, partial curve, poor fit]"
5,CCn1cc(C2=NOC(C(=O)Nc3cccc(C(C)=O)c3)C2)c(C)n1 (stereo unspecified),"inconclusive: 23.1 µM [cytotoxic, partial curve, poor fit]"
6,CC(=O)c1ccc2c(c1)C1C=CCC1C(c1ccc(S(=O)(=O)N3CCOCC3)cc1)N2 (stereo unspecified),inactive
7,O=C(Cc1ccc(Cl)cc1)NCCS(=O)(=O)N1CCN(c2ccccc2F)CC1,active: 13 µM
8,COC(=O)c1sccc1NC(=O)Cn1nnc(-c2ccc(C)cc2)n1,inactive
9,CC(NC(=O)C(=O)N1CCOCC1)C(c1cccs1)N1CCN(c2ccc(F)cc2)CC1 (stereo unspecified),inactive
10,O=C(NCC1CCCN(Cc2cccc(F)c2)C1)c1cccc2ccccc12 (stereo unspecified),"inconclusive: 16.4 µM [cytotoxic, single point]"
11,O=C(NCc1ccccc1)c1cc[n+]([O-])cc1,inactive
12,Cn1cccc1/C=C1\SC(=O)N(CC(=O)Nc2ccc(F)cc2)C1=O,"inconclusive: 4.11 µM [rising, partial curve, poor fit]"
13,Cc1cc(C)cc(N2C(=O)N(c3ccccc3C)C3CS(=O)(=O)CC32)c1 (stereo unspecified),"inconclusive: 20.6 µM [rising, single point]"
14,CCN(CCN(C)C)C(=O)Cn1ncc2c([nH]c3ccc(C)cc32)c1=O,inactive
15,Cc1ccc(CNC(=O)C2CCN(Cc3nc(-c4ccccc4C)oc3C)CC2)cc1,inactive
16,CCc1nc2ccc(C(=O)NCCc3c[nH]c4ccccc34)cn2c1N(C)CCCc1ccccc1,"inconclusive: 29.1 µM [cytotoxic, single point]"
17,Cc1ccccc1Cn1c(-c2cccs2)nc2ccccc21,inactive
18,CC(C)[C@H](NC(=O)c1ccco1)C(=O)OCC(=O)Nc1cccc(F)c1,"inconclusive: 29.1 µM [rising, single point]"
19,CN(CC(=O)NCC1CCCO1)S(=O)(=O)c1ccc(Br)cc1 (stereo unspecified),inactive
20,CCCCc1c(-c2ccccc2OC)ncn1CCc1cccc(Cl)c1,"inconclusive: 29.1 µM [cytotoxic, single point]"
21,CCCC(=O)c1ccc(N2CCN(C(=O)c3ccccc3Br)CC2)c(F)c1,"inconclusive: 20.6 µM [cytotoxic, single point]"

# Look-ups from above.
# Under Potency, CC(NC(=O)C(=O)N1CCOCC1)C(c1cccs1)N1CCN(c2ccc(F)cc2)CC1 (stereo unspecified) reads inactive
# Under Potency, O=C(NCc1ccccc1)c1cc[n+]([O-])cc1 reads inactive
